Test results reported in article PMC11892601.
Results are given in words; binding and its absence hold for the method and conditions named. For part of these data: In cells and extracts the contact can be indirect.

What was measured:
[1] = molecular target: T1, biotinylated G3BP1 190-208 CPP (rat) (UniProt D3ZYS7); test: pull-down; 30 µg biotinylated CPP in 10 µL PBS injected into rat sciatic nerve; nerves harvested 16 h later, lysed in RIPA + 0.01% Rapigest; approx. 500 µg protein on M-280 streptavidin Dynabeads, 4 °C, 3 h; three washes; immunoblot for G3BP1 or G3BP2; only the target purified
T1 sequence (peptide, biotin (position not stated)): VVEPEPEPEPEPEPEPVSD

[2] = molecular target: T1, biotinylated G3BP1 190-208 CPP (rat); test: pull-down + cross-linking; recombinant human G3BP1 mixed with equimolar biotinylated CPP in 1x PBS, 10 min at 37 °C; 1% formaldehyde 15 min at RT, quenched with 125 mM glycine; M-280 streptavidin Dynabeads, 4 °C, 3 h; washed with RIPA + SDS; immunoblot for G3BP1; both purified

Molecule: G3BP1 (endogenous, rat sciatic nerve) (from UniProt D3ZYS7 1-465)
- binding [1]: no binding

Molecule: recombinant human G3BP1 (OriGene) (from UniProt Q13283 1-466)
- binding [2]: no binding

B1: G3BP2 (endogenous, rat sciatic nerve) (protein, UniProt Q6AY21 1-449)
chain: MVMEKPSPLLVGREFVRQYYTLLNKAPEYLHRFYGRNSSYVHGGVDASGKPQEAVYGQNDIHHKVLSLNFSECHTKIRHVDAHATLSDGVVVQVMGLLSNSGQPERKFMQTFVLAPEGSVPNKFYVHNDMFRYEDEVFGDSEPELDEESEDEVEEEQEDRQPSPEPVQENANSAYYEAHPVTNGIEEPLEESSHEPEPEPESETKTEELKPQAEEKHLEELEEKSATPPPTEPASLPQEPPKPRVDAKPEVQSQPPRVREQRPRERPGFPPRGPRPGRGDTEQNDSDNRRIIRYPDSHQLFVGNLPHDIDENELKEFFMSFGNVVELRINTKGVGGKLPNFGFVVFDDSEPVQRILIAKPIMFRGEVRLNVEEKKTRAARERETRGGGDDRRDIRRNDRGPGGPRGIVGGGMMRDRDGRGPPPRGGMTQKLGSGRGTGQMEGRFTGQRR
- binding [1]: no binding
